PubChem BioAssay AID1508587 | Peter MacCallum Cancer Centre, 2020

- Test: 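Retest of knockdowns boosting BRAF inhibitor action on lactate release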 (follow-up of hits)
- System: human WM266.4 melanoma cells with a BRAF V600 mutation
- Knock-down reagent: single siRNA against human genes, 25 nM
- Time to read-out: 96 h
- Challenge: vemurafenib 300 nM (about IC25), given 48 h after transfection for 48 h
- Measurement: 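Per-cell lactate from absorbance divided by DAPI nucleus counts, compared with and without vemurafenib, relative to non-targeting siRNA, mean of 2 replicates; nuclear counts also give cell number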
- Scale: lactate per cell, drug vs no drug: higher = less drug-induced drop in lactate per cell
- Active means: 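a duplex is active when its lactate-per-cell ratio with versus without drug falls under 0.55, i.e. 2 SD below non-targeting; a gene is confirmed if 2 or more of 4 duplexes pass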
In all, the deposit lists about 1,600 reagents; shown is an unselected part. 623 of all reagents (39%) were called active. 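Calls are for each duplex; lactate ratios contain extreme outliers.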 A number with no mark means an inactive call. The numbers tell different reagents against one gene apart. Further read-outs or replicates are left out here.

With CT47A1 #1, what was measured?
lactate per cell, drug vs no drug: 0.53 (active)

For CT47A1 #2, what does the deposit list?
lactate per cell, drug vs no drug: 0.79

How did the screen score CT47A1 #3?
lactate per cell, drug vs no drug: 0.62

How did the screen score CT47A1 #4?
lactate per cell, drug vs no drug: 0.3 (active)

With GLYR1 #1, how do the results read?
lactate per cell, drug vs no drug: 0.78

With GLYR1 #2, how do the results read?
lactate per cell, drug vs no drug: 0.63

With GLYR1 #3, how do the results read?
lactate per cell, drug vs no drug: 0.72

For GLYR1 #4, what does the deposit list?
lactate per cell, drug vs no drug: 0.82

Records listed above marked active, once more:
CT47A1 #1 — lactate per cell, drug vs no drug = 0.53 (active)
CT47A1 #4 — lactate per cell, drug vs no drug = 0.3 (active)

The list goes on:
With ARPC2 #1, what does the deposit list?
lactate per cell, drug vs no drug: 0.52 (active)

With ARPC2 #2, what was measured?
lactate per cell, drug vs no drug: 0.73

With ARPC2 #3, what does the deposit list?
lactate per cell, drug vs no drug: 0.65

How did the screen score ARPC2 #4?
lactate per cell, drug vs no drug: 0.4 (active)

With BTBD10 #1, what does the deposit list?
lactate per cell, drug vs no drug: 0.53 (active)

What did the screen give for BTBD10 #2?
lactate per cell, drug vs no drug: 0.42 (active)

What is on record for BTBD10 #3?
lactate per cell, drug vs no drug: 0.58

Which result is listed for BTBD10 #4?
lactate per cell, drug vs no drug: 0.49 (active)

With ALK #1, what does the deposit list?
lactate per cell, drug vs no drug: 0.69

How did the screen score ALK #2?
lactate per cell, drug vs no drug: 0.7

How did the screen score ALK #3?
lactate per cell, drug vs no drug: 0.7

What did the screen give for ALK #4?
lactate per cell, drug vs no drug: 0.54 (active)
